From article PMC5316989 come the findings set out here.

The experiment deals with T1, TMEPAI cytoplasmic domain (aa63-287) fused to the GAL4 DNA-binding domain (UniProt Q969W9).
T1 sequence: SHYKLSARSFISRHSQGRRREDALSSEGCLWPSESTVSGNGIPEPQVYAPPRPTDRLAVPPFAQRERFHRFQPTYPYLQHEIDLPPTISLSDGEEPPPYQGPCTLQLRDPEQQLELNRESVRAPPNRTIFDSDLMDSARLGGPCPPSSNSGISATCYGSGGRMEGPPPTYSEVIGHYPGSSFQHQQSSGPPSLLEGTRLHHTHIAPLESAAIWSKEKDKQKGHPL
Put plainly: two-hybrid; TMEPAI versions as GAL4 DNA-binding domain fusions, partners as GAL4 activation domain fusions; yeast patched on DDO, QDO and QDO/X/A plates, growth on QDO and QDO/X/A means interaction.

No constants are given. Whether binding was seen depends on the method and setting. Where a sequence is shown, tags or fusion partners need not be part of it.

On to “Human Arp1 fused to the GAL4 activation domain”, for which the binding entry is “no binding”.
